According to patent US20230287363, “DNA POLYMERASE, APTAMER, WARM-START DNA POLYMERASE AND PREPARATION METHODS AND APPLICATION THEREOF” (Sun Yat-Sen University, published 2023):
For some assays here: No signal at the amounts used counts as a negative. Protein sequences can lack the tags named with them. For some assays here: The comparison behind a weaker result is the experiment's own reference, which may not be listed here. For some assays here: For at least one entry, the source does not settle the construct or the ends of the probe.

How the values were obtained:
[1] = tested on: T1, RHAU23-Bst (DHX36 RHAU23 peptide fused to N-terminus of Bst-LF) (Homo sapiens / Geobacillus stearothermophilus); experiment: EMSA; conditions: range over HG53, GH5, HG3; K+ buffer, 4 C; purified recombinant protein; protein details: His-tag, pCold-I, E. coli BL21; label: 5'-FAM (EMSA); folded or branched DNA
T1 sequence: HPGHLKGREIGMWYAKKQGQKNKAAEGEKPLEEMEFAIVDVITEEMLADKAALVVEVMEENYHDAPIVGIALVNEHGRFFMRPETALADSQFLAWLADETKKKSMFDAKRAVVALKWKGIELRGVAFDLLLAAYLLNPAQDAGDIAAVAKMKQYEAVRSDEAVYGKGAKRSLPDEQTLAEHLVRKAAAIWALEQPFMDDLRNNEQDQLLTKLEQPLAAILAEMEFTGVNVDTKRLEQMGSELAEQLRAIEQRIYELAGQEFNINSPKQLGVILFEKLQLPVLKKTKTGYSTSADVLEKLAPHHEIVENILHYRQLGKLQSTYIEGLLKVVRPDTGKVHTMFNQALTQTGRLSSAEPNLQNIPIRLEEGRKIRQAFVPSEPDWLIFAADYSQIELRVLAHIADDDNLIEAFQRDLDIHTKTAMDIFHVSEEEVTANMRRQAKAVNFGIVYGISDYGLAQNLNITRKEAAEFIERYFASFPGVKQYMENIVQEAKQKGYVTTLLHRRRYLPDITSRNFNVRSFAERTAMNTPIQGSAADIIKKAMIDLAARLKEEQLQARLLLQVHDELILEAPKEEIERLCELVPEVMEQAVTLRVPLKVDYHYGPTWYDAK

[2] = tested on: T1, RHAU23-Bst (DHX36 RHAU23 peptide fused to N-terminus of Bst-LF) (Homo sapiens / Geobacillus stearothermophilus); experiment: inhibition of the protein; conditions: purified recombinant protein, protein details: His-tag, pCold-I, E. coli BL21, folded or branched DNA, dose not given here
[3] = tested on: T2, G4P-Bst (G4P peptide fused to N-terminus of Bst-LF) (Homo sapiens / Geobacillus stearothermophilus); experiment: EMSA; conditions: purified recombinant protein, protein details: His-tag, pCold-I, E. coli BL21, label: 5'-FAM (EMSA)
T2 sequence: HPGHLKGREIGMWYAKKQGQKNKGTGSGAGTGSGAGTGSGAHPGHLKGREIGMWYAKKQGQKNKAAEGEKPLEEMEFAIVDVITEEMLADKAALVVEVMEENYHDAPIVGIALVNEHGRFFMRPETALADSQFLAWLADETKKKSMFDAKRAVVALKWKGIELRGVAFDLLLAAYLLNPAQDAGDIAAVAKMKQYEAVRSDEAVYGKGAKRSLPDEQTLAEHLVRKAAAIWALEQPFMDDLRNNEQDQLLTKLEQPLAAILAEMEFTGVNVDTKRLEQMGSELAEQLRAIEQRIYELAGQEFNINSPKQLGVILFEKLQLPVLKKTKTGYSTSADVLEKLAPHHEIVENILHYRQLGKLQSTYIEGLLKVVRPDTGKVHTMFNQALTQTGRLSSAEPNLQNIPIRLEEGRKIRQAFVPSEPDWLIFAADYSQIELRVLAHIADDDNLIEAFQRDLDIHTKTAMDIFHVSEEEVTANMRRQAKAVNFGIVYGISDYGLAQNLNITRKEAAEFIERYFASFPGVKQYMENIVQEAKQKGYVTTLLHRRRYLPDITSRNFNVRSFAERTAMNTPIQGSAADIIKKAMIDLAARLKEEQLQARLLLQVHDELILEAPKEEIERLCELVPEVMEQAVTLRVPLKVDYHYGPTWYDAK

[4] = tested on: T2, G4P-Bst (G4P peptide fused to N-terminus of Bst-LF) (Homo sapiens / Geobacillus stearothermophilus); experiment: inhibition of the protein; conditions: purified recombinant protein, protein details: His-tag, pCold-I, E. coli BL21, label: 5'-FAM (EMSA), dose not given here
[5] = tested on: T3, Bst-LF (Bst DNA polymerase large fragment) (Geobacillus stearothermophilus); experiment: EMSA; conditions: binding significantly reduced without G4-binding peptide; purified recombinant protein; protein details: His-tag, pCold-I, E. coli BL21; label: 5'-FAM (EMSA); folded or branched DNA
T3 sequence: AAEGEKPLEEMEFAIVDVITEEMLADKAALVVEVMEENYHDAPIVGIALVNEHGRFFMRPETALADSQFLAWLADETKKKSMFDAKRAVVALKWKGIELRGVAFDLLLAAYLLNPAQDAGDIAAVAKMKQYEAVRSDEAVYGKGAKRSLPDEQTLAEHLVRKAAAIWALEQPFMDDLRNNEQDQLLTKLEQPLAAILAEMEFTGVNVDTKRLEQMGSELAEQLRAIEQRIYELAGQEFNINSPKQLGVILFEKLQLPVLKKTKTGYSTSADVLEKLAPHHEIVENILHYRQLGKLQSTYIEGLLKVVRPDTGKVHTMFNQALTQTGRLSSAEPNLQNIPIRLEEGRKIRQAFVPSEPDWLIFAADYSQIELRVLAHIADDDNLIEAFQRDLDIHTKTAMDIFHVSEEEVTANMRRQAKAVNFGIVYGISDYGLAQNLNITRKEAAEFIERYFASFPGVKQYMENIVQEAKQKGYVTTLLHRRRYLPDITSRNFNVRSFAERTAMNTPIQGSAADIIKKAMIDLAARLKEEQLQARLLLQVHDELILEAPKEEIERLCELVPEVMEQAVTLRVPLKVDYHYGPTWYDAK

[6] = tested on: T3, Bst-LF (Bst DNA polymerase large fragment) (Geobacillus stearothermophilus); experiment: inhibition of the protein; conditions: no modulation of polymerase activity; purified recombinant protein; protein details: His-tag, pCold-I, E. coli BL21; label: 5'-FAM (EMSA); folded or branched DNA; dose not given here
[7] = strong inhibition at 25 C for at least 40 min, full recovery at 65 C, label: 5'-FAM (EMSA)
[8] = effective inhibition at 25 C, enzyme:aptamer 1:2, variant of HG53 (HG53-H8/T10)
[9] = effective (loop 6 nt or more), 25 C, variant of HG53 (HG53-H8/T10)
[10] = inhibited at least 40 min at 25 C, 1:2, variant of HG53 (HG53-H8/T10)
[11] = range over six G4 DNAs, K+ buffer, 4 C, folded or branched DNA
[12] = ratio-dependent partial inhibition at 25 C, almost recovered at 65 C, folded or branched DNA
[13] = primer extension almost unaffected at 25 C or 65 C, folded or branched DNA

AAGTTTTGGTGGGTGGGTGGGATCAGACCAGTTTTCTGGTCTG [GH5]
binding result [1]: binds | functional effect of the aptamer [2, 7]: active

ACTATGGAACAGTTATACGCAAGTATTTTTTTTTTTTTTTTTTTTTGAATTCACTAGCTGTCTGCTTCAGG / TGATACCTTGTCAATATGCGTTCATAAAAAAAAAAAAAAAAAAAAACTTAAGTGATCGACAGACGAAGTCC [non-G4 dsDNA]
binding result ([3]; binding significantly reduced without G4): binds more weakly | functional effect of the aptamer ([4]; no modulation of polymerase activity): less active

ACTATGGAACAGTTATACGCAAGTATTTTTTTTTTTTTTTTTTTTTGAATTCACTAGCTGTCTGCTTCAGG [non-G4 ssDNA]
binding result ([3]; binding significantly reduced without G4, single-stranded DNA): binds more weakly | functional effect of the aptamer ([4]; no modulation of polymerase activity, single-stranded DNA): less active

CAGACCAGAAATTTTTTTTTTACTGGTCTG [HG53-non-G4]
functional effect of the aptamer ([2]; G4 deletion: no inhibition, 25 C, variant of HG53 (HG53-H8/T10)): not active

CAGACCAGAAGGGAGGGCGGCGGGGCATTGATTTTTTTTTTACTGGTCTG [HG53-PDGFR]
functional effect of the aptamer [2, 8]: active

CAGACCAGAAGGGCGGGCGCGAGGGAGGGATTTTTTTTTTACTGGTCTG [HG53-KIT]
functional effect of the aptamer [2, 8]: active

CAGACCAGAAGGGGCGGGGCGCGGGGCGGGGATTTTTTTTTTACTGGTCTG [HG53-CSTB]
functional effect of the aptamer [2, 8]: active

CAGACCAGAAGTGGTGGGTGGGTGGGATTTTTTTTTTACTGGTCTG [HG53-T1B1]
functional effect of the aptamer [2, 8]: active

CAGACCAGAAGTTTTAATAAATAAATAAAATTTTTTTTTTACTGGTCTG [HG53-mut-G4]
functional effect of the aptamer ([2]; G4 mutation: no inhibition, 25 C, variant of HG53 (HG53-H8/T10)): not active

CAGACCAGAAGTTTTGGTGGGTGGGTGGGATTTTTTACTGGTCTG [HG53-T6]
functional effect of the aptamer [2, 9]: active

CAGACCAGAAGTTTTGGTGGGTGGGTGGGATTTTTTTTACTGGTCTG [HG53-T8]
functional effect of the aptamer [2, 9]: active

CAGACCAGAAGTTTTGGTGGGTGGGTGGGATTTTTTTTTTACTGGTCTG [HG53 (HG53-H8/T10)]
binding result [1]: binds | functional effect of the aptamer [2, 7]: active

CAGACCAGAAGTTTTGGTGGGTGGGTGGGATTTTTTTTTTTTACTGGTCTG [HG53-T12]
functional effect of the aptamer [2, 9]: active

CAGACCAGAATTTTTGGGTGGTGGGTGGGATTTTTTTTTTACTGGTCTG [HG53-GVBQ2]
functional effect of the aptamer [2, 10]: active

CAGACCAGAATTTTTGGTGGGTGGGTGGGATTTTTTTTTTACTGGTCTG [HG53-GVBQ1]
functional effect of the aptamer ([2]; inhibited at least 40 min at 25 C, greatly inhibited below 30 C, variant of HG53 (HG53-H8/T10)): active

CAGACCAGAATTTTTGGTTGGTGGGTGGGATTTTTTTTTTACTGGTCTG [HG53-G12]
functional effect of the aptamer [2, 10]: active

CAGACCAGTTTTCTGGTCTGAAGTTTTGGTGGGTGGGTGGGAT [HG3]
binding result [1]: binds | functional effect of the aptamer [2, 7]: active

CCTGAAGCAGACAGCTAGTGAATTCGGGAGGGCGGCGGGGCAGGGTACTTGCGTATAACTGTTCCATAGT / ACTATGGAACAGTTATACGCAAGTATTTTTTTTTTTTTTTTTTTTTGAATTCACTAGCTGTCTGCTTCAGG [PDGFRB-Fd-G4]
binding result [3, 11]: binds | functional effect of the aptamer ([4]; almost complete inhibition at 25 C, still inhibited at 65 C, folded or branched DNA): active | functional effect of the aptamer ([2]; primer extension, activity almost completely restored at 65 C, label: 5'-FAM (EMSA)): active

CCTGAAGCAGACAGCTAGTGAATTCGGGAGGGCGGCGGGGCAGGGTACTTGCGTATAACTGTTCCATAGT [PDGFRB-Fs-G4]
binding result [3, 11]: binds | functional effect of the aptamer [4, 12]: active

CCTGAAGCAGACAGCTAGTGAATTCGTTTTGGTGGGTGGGTGGGTACTTGCGTATAACTGTTCCATAGT [T4B1-Fs-G4]
binding result [5]: binds more weakly | binding result [3, 11]: binds | functional effect of the aptamer [6]: less active | functional effect of the aptamer [4, 12]: active

GGGAGGGCGGCGGGGCAGGG [PDGFRB-core G4]
binding result [3, 11]: binds | functional effect of the aptamer [4, 13]: active

GTTTTGGTGGGTGGGTGGG [T4B1-core-G4]
binding result [3, 11]: binds | functional effect of the aptamer [4, 13]: active
